{"source": "paper PMC2629544", "binders": {"B1": {"name": "35S-labelled Dsh (Xdsh), in vitro translated (protein, UniProt P51142 1-736)", "chain": "MAETKVIYHLDEEETPYLVKVPVPATDIRLRDFKAALGRGHAKYFFKAMDQDFGVVKEEISDDNAKLPCFNDRVVSWLASSEGSQPDSAPPAPATEVRPEPPPPVPPPIPPPPAERTSGIGDSRPPSFHPNVSGSTEQLDQDNESVISMRRDRVRRRESSEQAGVGRGVNGRTERHLSGYESSSTLLTSEIETSICDSEEDDTMSRFSSSTEQSSASRLLKRHRRRRKQRPPRLERTSSFSSVTDSTMSLNIITVTLNMEKYNFLGISIVGQSNERGDGGIYIGSIMKGGAVAADGRIEPGDMLLQVNDINFENMSNDDAVRVLRDIVHKPGPIVLTVAKCWDPSPQGYFTLPRNEPIHPIDPAAWVSHSAALSGSFPVYPGSASMSSMTSSTSVTETELSHALPPVSLFSLSVHTDLASVVKVMASPESGLEVRDRMWLKITIPNAFLGSDVVDWLYHHVEGFQDRREARKFASNLLKAGFIRHTVNKITFSEQCYYIFGDLTGCENYMTNLSLNDNDGSSGASDQDTLAPLPLPGASPWPLLPTFSYQYQAPHPYSTQPPAYHELSSYSYGMGSAGSQHSEGSRSSGSNRSDGGRGMQKDDRSGVAGVGGGDSKSGSGSESEYSTRSSIRRVGGGEAGPPSERSTSSRLPPHHPPSVHSYAAPGVPLSYNPMMLMMMPPPPLPPPGVCPPNSSVPPGAPPLVRDLASVPPELTATRQSFHMAMGNPSEFFVDVM", "modifications": "35S-Met-labelled"}, "B2": {"name": "HA-Dsh, expressed in X. laevis embryos (protein, UniProt P51142 1-736)", "chain": "B1 chain"}, "B3": {"name": "endogenous Tcf3 of X. laevis embryos (protein, UniProt P70062 1-554)", "chain": "MPQLNSGGGDELGANDELIRFKDEGEQEEKSPGEGSAEGDLADVKSSLVNESENHSSDSDSEVERRPPPREAFEKHRDYLTEALRRQQDAAFFKGPPYAGYPFLMIPDLGGHYLPNGALSPSARTYLQMKWPLLDSPSTAGLKDARSPSPAHLSNKVPVVQHPHHMHPLTPLITYSNEHFSPGTPPGHLSPEIDPKTGIPRPPHPSELSPYYPLSPGAVGQIPHPLGWLVPPQGQPMYSIPPGGFRHPYPALAMNASMSSLVSSRFSPHMVPPPHHSLHTSGIPHPAIVSPIVKQEPSSGNISPNLHTKSNMIVKKEEEKKPHIKKPLNAFMLYMKEMRAKVVAECTLKESAAINQILGRRWHSLSREEQAKYYELARKERQLHSQLYPSWSARDNYGKRKKRKREKQSPEMETHTKTKKMCVQHLPADKSCDSPASSHGSMLDSPATPSAALASPAAPAATHSEQAQPLSLTTKPEARAQLSLSHSAAFLASKSPSSSSFSGHLSSPVGSPLLSRPIPLTSSILSPSGVFPSALQALPLLQAQPLSLVTKSSD"}}, "key": {"[1]": {"molecular_target": "Myc-Hipk1, in vitro translated (X. laevis)", "assay": "co-IP; radiolabelled and unlabelled TNT in vitro translation reactions mixed, precipitated with 9e10 anti-Myc antibody cross-linked to Protein A Sepharose; autoradiography"}, "[2]": {"molecular_target": "Myc-Hipk1, expressed in X. laevis embryos (X. laevis)", "assay": "co-IP; extracts of X. laevis embryos injected with synthetic RNAs, lysed at stage 10 (150 mM NaCl, 25 mM Tris pH 7.5, 1% Triton); 9e10 anti-Myc Protein A Sepharose overnight at 4 C; western blot for Dsh-HA"}, "[3]": {"molecular_target": "Myc-Hipk1, expressed in X. laevis embryos (X. laevis)", "assay": "co-IP; extracts of X. laevis embryos (dorsal or ventral) injected with synthetic RNA for Myc-Hipk1 or Myc-(K/R)Hipk1; 9e10 anti-Myc Protein A Sepharose; western blot for endogenous Tcf3"}}, "note": "Results are given in words; binding and its absence hold for the method and conditions named. In cells and extracts the contact can be indirect. For part of these data: Binding calls can cover weak binding; strength is not graded here. For part of these data: Sequences can lack the tags named with a protein.", "data": [{"binder": "B1", "values": [{"measurement": "binding", "setting": "[1]", "result": "binds"}]}, {"binder": "B2", "values": [{"measurement": "binding", "setting": "[2]", "result": "binds"}]}, {"binder": "B3", "values": [{"measurement": "binding", "setting": "[3]", "result": "no binding"}]}]}
